Laboratory results: the supplement of paper PMC10849652
Some of the results follow.

Protein sequences, listed by entry. Tags and fused reporters are not part of them. Lines headed by an entry give the natural chain unless they say otherwise; changes in a name come on top.
UniProt Q86SQ9: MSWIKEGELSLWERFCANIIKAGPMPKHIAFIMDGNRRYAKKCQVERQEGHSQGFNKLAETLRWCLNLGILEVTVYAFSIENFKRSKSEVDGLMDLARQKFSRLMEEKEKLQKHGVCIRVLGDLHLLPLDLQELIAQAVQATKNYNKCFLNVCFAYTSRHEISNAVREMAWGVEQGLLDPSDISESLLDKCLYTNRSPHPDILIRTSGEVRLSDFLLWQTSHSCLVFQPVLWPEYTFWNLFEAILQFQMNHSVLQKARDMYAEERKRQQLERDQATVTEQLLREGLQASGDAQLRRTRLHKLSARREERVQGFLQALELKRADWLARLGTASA
UniProt O75190: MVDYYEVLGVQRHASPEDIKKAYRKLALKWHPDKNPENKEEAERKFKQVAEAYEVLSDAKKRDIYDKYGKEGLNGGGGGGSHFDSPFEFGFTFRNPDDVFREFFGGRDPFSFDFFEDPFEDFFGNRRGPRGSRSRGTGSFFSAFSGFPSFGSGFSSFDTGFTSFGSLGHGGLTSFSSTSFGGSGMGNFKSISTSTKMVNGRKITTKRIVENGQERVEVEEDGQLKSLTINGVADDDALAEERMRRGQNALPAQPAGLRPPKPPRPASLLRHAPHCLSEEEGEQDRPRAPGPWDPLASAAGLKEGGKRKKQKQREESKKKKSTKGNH
UniProt Q9UBM7: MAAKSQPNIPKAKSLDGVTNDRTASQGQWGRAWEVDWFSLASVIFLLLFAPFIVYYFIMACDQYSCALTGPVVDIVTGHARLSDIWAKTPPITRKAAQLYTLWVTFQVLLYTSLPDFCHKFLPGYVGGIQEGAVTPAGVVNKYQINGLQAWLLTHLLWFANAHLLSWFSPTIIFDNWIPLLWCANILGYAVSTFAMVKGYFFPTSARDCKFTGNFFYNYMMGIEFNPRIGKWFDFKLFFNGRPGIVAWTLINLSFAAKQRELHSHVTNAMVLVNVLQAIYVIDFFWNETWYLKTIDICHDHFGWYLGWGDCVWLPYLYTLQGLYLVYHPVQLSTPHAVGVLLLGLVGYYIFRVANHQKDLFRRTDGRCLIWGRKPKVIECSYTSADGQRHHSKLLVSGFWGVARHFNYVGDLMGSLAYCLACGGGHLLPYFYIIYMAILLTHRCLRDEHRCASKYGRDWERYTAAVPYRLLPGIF
UniProt Q99543: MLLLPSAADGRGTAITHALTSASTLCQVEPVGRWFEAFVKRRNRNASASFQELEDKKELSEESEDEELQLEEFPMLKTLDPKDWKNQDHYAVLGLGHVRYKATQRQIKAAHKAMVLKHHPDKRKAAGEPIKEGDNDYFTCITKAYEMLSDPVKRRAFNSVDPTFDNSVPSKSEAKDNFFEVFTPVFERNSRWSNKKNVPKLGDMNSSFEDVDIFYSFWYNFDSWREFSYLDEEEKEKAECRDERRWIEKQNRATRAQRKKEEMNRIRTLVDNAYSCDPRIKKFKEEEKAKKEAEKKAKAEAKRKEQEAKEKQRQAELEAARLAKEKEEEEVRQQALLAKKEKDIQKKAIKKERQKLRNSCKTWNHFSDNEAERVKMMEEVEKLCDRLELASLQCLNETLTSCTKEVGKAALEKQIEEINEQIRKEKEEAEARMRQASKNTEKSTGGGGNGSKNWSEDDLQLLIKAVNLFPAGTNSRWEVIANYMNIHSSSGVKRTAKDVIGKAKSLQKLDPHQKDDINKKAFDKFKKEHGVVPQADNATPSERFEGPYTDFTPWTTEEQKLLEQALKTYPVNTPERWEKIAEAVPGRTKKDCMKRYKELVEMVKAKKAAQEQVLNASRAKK
UniProt Q9BVM2: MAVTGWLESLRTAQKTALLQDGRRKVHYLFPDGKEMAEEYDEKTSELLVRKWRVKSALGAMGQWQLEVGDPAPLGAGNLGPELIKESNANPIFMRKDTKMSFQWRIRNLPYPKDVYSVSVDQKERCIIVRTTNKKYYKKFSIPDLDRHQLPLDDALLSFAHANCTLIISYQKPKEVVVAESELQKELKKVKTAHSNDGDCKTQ
UniProt Q96EY1: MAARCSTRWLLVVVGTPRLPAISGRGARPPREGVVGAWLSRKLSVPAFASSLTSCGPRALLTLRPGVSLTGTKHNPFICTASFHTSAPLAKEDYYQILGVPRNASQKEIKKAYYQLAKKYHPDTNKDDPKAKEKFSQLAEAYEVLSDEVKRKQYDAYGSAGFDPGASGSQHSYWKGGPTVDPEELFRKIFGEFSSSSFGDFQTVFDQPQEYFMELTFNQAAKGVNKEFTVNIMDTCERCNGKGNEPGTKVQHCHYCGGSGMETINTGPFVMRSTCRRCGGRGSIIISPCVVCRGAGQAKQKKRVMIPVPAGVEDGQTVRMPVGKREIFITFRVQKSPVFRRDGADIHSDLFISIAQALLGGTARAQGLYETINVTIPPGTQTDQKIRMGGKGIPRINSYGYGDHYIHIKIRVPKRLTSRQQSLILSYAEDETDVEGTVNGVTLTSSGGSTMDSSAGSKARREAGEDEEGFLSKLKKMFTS
UniProt Q9BTZ2: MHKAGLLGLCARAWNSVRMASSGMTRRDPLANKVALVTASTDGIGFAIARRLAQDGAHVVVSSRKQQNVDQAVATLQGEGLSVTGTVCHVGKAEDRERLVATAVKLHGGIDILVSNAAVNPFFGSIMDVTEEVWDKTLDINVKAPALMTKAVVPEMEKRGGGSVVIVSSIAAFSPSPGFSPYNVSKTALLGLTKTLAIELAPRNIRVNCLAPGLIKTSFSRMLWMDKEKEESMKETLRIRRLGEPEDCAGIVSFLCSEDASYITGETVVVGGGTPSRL
UniProt Q8TF46, whole entry, looked up: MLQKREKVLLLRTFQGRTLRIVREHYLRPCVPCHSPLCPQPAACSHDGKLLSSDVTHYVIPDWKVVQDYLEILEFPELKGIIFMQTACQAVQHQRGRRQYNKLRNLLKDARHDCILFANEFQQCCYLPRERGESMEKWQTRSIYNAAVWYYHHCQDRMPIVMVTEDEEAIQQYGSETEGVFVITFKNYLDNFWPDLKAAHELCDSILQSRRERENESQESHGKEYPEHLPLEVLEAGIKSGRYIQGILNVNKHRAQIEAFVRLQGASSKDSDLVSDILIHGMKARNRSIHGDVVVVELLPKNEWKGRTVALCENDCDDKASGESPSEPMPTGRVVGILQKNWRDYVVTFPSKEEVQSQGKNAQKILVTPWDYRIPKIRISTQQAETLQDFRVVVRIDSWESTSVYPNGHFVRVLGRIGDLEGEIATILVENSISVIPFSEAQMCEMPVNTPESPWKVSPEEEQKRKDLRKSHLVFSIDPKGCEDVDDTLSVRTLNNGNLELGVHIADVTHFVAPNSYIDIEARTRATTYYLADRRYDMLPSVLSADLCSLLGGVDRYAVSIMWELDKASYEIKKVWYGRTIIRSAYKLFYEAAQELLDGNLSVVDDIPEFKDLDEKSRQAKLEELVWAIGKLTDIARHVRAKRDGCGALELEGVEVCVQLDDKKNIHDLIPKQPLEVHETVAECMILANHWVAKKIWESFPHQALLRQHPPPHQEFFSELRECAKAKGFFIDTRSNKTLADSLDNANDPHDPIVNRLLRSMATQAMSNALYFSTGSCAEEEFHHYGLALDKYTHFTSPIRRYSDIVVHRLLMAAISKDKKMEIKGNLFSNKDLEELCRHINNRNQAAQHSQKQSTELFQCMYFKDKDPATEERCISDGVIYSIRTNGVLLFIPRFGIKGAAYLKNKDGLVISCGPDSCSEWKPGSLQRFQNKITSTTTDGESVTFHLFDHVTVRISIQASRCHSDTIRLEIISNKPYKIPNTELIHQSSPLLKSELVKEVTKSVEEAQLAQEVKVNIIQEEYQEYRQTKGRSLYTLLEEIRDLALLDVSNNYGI
UniProt Q68CQ4: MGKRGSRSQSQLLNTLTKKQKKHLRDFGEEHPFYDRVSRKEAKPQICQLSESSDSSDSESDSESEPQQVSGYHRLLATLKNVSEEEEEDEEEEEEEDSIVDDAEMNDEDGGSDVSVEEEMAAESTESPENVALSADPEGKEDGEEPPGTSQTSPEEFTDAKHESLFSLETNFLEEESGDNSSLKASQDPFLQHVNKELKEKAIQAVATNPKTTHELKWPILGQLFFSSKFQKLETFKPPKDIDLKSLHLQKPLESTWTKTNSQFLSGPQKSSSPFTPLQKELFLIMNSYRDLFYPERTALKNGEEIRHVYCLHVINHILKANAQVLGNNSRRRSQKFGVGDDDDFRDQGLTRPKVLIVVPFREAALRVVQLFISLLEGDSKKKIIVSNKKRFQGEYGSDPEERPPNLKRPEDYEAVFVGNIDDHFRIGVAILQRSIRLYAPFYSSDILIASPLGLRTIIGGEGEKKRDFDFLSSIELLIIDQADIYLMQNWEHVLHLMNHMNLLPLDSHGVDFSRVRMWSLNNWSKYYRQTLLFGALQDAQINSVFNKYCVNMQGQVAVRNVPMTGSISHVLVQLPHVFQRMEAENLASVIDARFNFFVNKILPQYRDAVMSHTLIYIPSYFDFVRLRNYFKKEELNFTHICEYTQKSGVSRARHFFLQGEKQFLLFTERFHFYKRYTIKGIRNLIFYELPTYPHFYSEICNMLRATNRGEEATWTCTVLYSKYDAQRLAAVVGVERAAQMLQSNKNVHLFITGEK
UniProt O75937: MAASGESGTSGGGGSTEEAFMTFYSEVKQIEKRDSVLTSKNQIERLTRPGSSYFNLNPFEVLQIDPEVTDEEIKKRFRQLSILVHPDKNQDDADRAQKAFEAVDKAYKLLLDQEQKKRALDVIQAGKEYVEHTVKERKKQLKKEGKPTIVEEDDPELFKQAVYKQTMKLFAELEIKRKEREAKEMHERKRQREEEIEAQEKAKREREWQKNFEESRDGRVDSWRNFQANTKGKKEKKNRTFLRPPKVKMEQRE
UniProt Q6XZF7: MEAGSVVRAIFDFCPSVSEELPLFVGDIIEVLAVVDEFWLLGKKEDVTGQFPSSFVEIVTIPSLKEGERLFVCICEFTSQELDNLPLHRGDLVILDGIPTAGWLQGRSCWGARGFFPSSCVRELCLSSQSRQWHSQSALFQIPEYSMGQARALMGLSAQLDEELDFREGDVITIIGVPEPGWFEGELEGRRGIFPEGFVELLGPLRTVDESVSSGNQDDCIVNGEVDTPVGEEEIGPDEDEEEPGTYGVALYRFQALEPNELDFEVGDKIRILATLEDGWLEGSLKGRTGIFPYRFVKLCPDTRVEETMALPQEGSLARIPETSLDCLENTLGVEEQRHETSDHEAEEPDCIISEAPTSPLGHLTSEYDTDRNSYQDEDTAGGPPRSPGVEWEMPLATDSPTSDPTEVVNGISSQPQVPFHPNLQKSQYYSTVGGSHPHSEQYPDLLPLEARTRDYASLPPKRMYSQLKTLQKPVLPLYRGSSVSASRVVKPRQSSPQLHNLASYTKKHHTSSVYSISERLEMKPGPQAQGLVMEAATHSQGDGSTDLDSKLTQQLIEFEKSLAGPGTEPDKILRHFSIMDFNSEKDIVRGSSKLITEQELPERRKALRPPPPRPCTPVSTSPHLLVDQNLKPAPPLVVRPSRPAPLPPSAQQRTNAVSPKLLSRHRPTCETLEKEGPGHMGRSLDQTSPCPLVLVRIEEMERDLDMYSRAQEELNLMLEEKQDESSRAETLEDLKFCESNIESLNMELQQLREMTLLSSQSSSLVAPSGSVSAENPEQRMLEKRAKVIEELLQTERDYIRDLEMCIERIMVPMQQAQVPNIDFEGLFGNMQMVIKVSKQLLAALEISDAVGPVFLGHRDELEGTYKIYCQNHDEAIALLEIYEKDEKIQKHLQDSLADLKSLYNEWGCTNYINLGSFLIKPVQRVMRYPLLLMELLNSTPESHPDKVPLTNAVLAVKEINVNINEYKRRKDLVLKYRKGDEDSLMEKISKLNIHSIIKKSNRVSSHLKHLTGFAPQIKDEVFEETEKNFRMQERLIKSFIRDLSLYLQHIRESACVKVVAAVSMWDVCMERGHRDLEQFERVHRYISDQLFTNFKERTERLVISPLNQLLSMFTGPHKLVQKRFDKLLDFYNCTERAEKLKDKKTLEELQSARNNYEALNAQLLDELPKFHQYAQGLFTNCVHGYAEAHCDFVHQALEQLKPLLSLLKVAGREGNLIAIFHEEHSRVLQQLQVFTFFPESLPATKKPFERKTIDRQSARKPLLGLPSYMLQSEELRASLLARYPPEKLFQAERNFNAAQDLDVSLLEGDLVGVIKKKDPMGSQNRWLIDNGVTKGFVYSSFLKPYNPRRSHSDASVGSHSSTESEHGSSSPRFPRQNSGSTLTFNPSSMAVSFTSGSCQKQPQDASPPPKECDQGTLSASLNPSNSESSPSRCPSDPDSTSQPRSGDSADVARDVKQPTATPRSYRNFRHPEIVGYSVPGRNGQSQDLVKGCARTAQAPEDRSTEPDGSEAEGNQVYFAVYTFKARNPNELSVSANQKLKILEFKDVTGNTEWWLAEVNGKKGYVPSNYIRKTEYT

Key:
Test in all cases: log2 fold change, soluble protein after heating vs DMSO (PISA); higher = thermal stabilisation; K562 lysate, 10 uM; active = over 0.2 and 3.5 SD of the protein, either way, in both replicates (recomputed)
lapatinib = compound: CS(=O)(=O)CCNCc1ccc(-c2ccc3ncnc(Nc4ccc(OCc5cccc(F)c5)c(Cl)c4)c3c2)o1 [lapatinib]
How it was run: (§1)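 Quantification was by TMTpro 16plex LC-MS/MS with equalised channel sums, applied to the supernatant after 21,000xg for 90 min. Samples were crude K562 extract at 1 mg/mL protein in PBS pH 7.4 with 1 mM MgCl2, treated with 10 μM compound for 30 min, heated for 3 min across 48°C-58°C, pooled and brought to 0.5% NP-40 at 4°C. Values are log-two fold changes in thermal stability relative to solvent controls, from duplicates.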

pictilisib = compound: CS(=O)(=O)N1CCN(Cc2cc3nc(-c4cccc5[nH]ncc45)nc(N4CCOCC4)c3s2)CC1 [pictilisib]
How it was run: as §1

crizotinib = compound: C[C@@H](Oc1cc(-c2cnn(C3CCNCC3)c2)cnc1N)c1c(Cl)ccc(F)c1Cl [crizotinib]
How it was run: as §1

[1] = compound: C[C@H](C1=CC=C(C=C1)C(=O)NC2=C3C=CNC3=NC=C2)N
How it was run: as §1

duvelisib = compound: C[C@H](Nc1ncnc2nc[nH]c12)c1cc2cccc(Cl)c2c(=O)n1-c1ccccc1 [duvelisib]
How it was run: as §1

gandotinib = compound: Cc1cc(Nc2cc(CN3CCOCC3)c3nc(C)c(Cc4ccc(Cl)cc4F)n3n2)n[nH]1 [gandotinib]
How it was run: as §1

tozasertib = compound: Cc1cc(Nc2cc(N3CCN(C)CC3)nc(Sc3ccc(NC(=O)C4CC4)cc3)n2)n[nH]1 [tozasertib]
How it was run: as §1

doramapimod = compound: Cc1ccc(-n2nc(C(C)(C)C)cc2NC(=O)Nc2ccc(OCCN3CCOCC3)c3ccccc23)cc1 [doramapimod]
How it was run: as §1

bafetinib = compound: Cc1ccc(NC(=O)c2ccc(CN3CC[C@H](N(C)C)C3)c(C(F)(F)F)c2)cc1Nc1nccc(-c2cncnc2)n1 [bafetinib]
How it was run: as §1

[2] = compound: Cc1cccc(CC(=O)N2CCc3c2ccc(-c2cn(C)c4ncnc(N)c24)c3F)n1
How it was run: as §1

nilotinib = compound: Cc1cn(-c2cc(NC(=O)c3ccc(C)c(Nc4nccc(-c5cccnc5)n4)c3)cc(C(F)(F)F)c2)cn1 [nilotinib]
How it was run: as §1

[3] = compound: Cc1nc(Nc2n[nH]c3c2CN(C(=O)N[C@H](CN(C)C)c2ccccc2)C3(C)C)c2sccc2n1
How it was run: as §1

dasatinib = compound: Cc1nc(Nc2ncc(C(=O)Nc3c(C)cccc3Cl)s2)cc(N2CCN(CCO)CC2)n1 [dasatinib]
How it was run: as §1

[4] = compound: Cc1ncc(-c2ccnc(Nc3ccc(S(C)(=O)=O)cc3)n2)n1C(C)C
How it was run: as §1

[5] = compound: Cn1cc(-c2ccc3c(c2)CCN3C(=O)Cc2cccc(C(F)(F)F)c2)c2c(N)ncnc21
How it was run: as §1

quisinostat = compound: Cn1cc(CNCC2CCN(c3ncc(C(=O)NO)cn3)CC2)c2ccccc21 [quisinostat]
How it was run: as §1

tipifarnib = compound: Cn1cncc1[C@@](N)(c1ccc(Cl)cc1)c1ccc2c(c1)c(-c1cccc(Cl)c1)cc(=O)n2C [tipifarnib]
How it was run: as §1

[6] = compound: NC(=O)Nc1cc(-c2cccc(F)c2)sc1C(=O)N[C@H]1CCCNC1
How it was run: as §1

[7] = compound: NC(=O)c1cnc(N[C@@H]2CCCC[C@@H]2N)nc1Nc1cccc(-n2nccn2)c1
How it was run: as §1

[8] = compound: NC1(c2ccc(-c3nc4ccn5c(=O)[nH]nc5c4cc3-c3ccccc3)cc2)CCC1
How it was run: as §1

Measured: log2 fold change

DNAJA1 (UniProt P31689)
inactive: lapatinib -0.011 | pictilisib 0.051 | crizotinib -0.024 | [1] -0.139 | duvelisib 0.021 | gandotinib 0.075 | tozasertib -0.025 | doramapimod 0.013 | bafetinib -0.04 | [2] 0.049 | nilotinib 0.009 | [3] 0.012 | dasatinib -0.032 | [4] 0 | [5] -0.024 | quisinostat -0.075 | tipifarnib -0.047 | [6] 0.014 | [7] -0.029 | [8] -0.014

DHDDS isoform 2 (UniProt Q86SQ9)
inactive: lapatinib -0.008 | pictilisib -0.076 | crizotinib 0.03 | [1] 0.007 | duvelisib -0.01 | gandotinib -0.091 | tozasertib 0.044 | doramapimod -0.023 | bafetinib -0.062 | [2] 0.016 | nilotinib -0.017 | [3] 0.033 | dasatinib 0.034 | [4] -0.017 | [5] -0.018 | quisinostat 0.027 | tipifarnib -0.029 | [6] 0.027 | [7] 0.008 | [8] 0.004

DNAJB6 (UniProt O75190)
inactive: lapatinib 0.002 | pictilisib 0.042 | crizotinib -0.083 | [1] 0.01 | duvelisib 0.049 | gandotinib 0.004 | tozasertib 0.002 | doramapimod 0.01 | bafetinib -0.138 | [2] 0.043 | nilotinib -0.038 | [3] 0.032 | dasatinib 0.09 | [4] 0.01 | [5] -0.04 | quisinostat -0.162 | tipifarnib -0.084 | [6] 0.044 | [7] 0.105 | [8] 0.018

DHCR7 (UniProt Q9UBM7)
active: gandotinib -0.215
inactive: lapatinib -0.092 | pictilisib -0.039 | crizotinib -0.103 | [1] -0.024 | duvelisib 0.067 | tozasertib -0.01 | doramapimod 0.002 | bafetinib 0.024 | [2] 0.013 | nilotinib -0.013 | [3] 0.016 | dasatinib 0.011 | [4] 0 | [5] 0.013 | quisinostat 0.234 | tipifarnib 0.015 | [6] 0.029 | [7] 0.008 | [8] 0.047

DLG1 isoform 2 (UniProt Q12959)
inactive: lapatinib -0.001 | pictilisib -0.007 | crizotinib -0.027 | [1] 0.022 | duvelisib -0.011 | gandotinib -0.016 | tozasertib -0.078 | doramapimod 0.001 | bafetinib 0.003 | [2] -0.012 | nilotinib -0.036 | [3] 0.026 | dasatinib -0.006 | [4] -0.042 | [5] 0.032 | quisinostat -0.027 | tipifarnib 0.058 | [6] 0.02 | [7] 0.008 | [8] -0.047

DNAJC2 (UniProt Q99543)
inactive: lapatinib 0.016 | pictilisib 0.026 | crizotinib 0.02 | [1] 0.004 | duvelisib -0.008 | gandotinib -0.035 | tozasertib -0.009 | doramapimod 0.017 | bafetinib -0.02 | [2] 0.012 | nilotinib -0.014 | [3] -0.011 | dasatinib 0.007 | [4] 0.001 | [5] 0.042 | quisinostat 0.06 | tipifarnib 0.011 | [6] 0.029 | [7] -0.004 | [8] -0.011

DIAPH3 (UniProt Q9NSV4)
inactive: lapatinib 0.068 | pictilisib 0.005 | crizotinib 0.003 | [1] 0.039 | duvelisib -0.043 | gandotinib -0.102 | tozasertib -0.017 | doramapimod 0.036 | bafetinib -0.075 | [2] 0.135 | nilotinib -0.019 | [3] 0.019 | dasatinib -0.167 | [4] -0.021 | [5] 0.029 | quisinostat -0.093 | tipifarnib -0.041 | [6] 0.057 | [7] 0.077 | [8] 0.019

DIS3L2 (UniProt Q8IYB7)
inactive: lapatinib 0.007 | pictilisib -0.107 | crizotinib 0.025 | [1] 0.013 | duvelisib -0.036 | gandotinib -0.03 | tozasertib 0.003 | doramapimod 0.075 | bafetinib -0.033 | [2] 0.059 | nilotinib 0.002 | [3] 0.037 | dasatinib -0.066 | [4] -0.015 | [5] -0.001 | quisinostat 0.067 | tipifarnib 0.022 | [6] 0.011 | [7] 0.001 | [8] -0.01

DPCD (UniProt Q9BVM2)
inactive: lapatinib 0.049 | pictilisib -0.015 | crizotinib -0.04 | [1] -0.077 | duvelisib -0.032 | gandotinib -0.022 | tozasertib 0.091 | doramapimod 0.048 | bafetinib -0.07 | [2] 0.064 | nilotinib -0.048 | [3] 0.048 | dasatinib -0.024 | [4] -0.048 | [5] -0.004 | quisinostat -0.056 | tipifarnib 0.03 | [6] 0.038 | [7] -0.008 | [8] 0.013

DNAJA3 (UniProt Q96EY1)
inactive: lapatinib 0.004 | pictilisib 0.078 | crizotinib -0.055 | [1] 0.035 | duvelisib 0.02 | gandotinib -0.005 | tozasertib -0.029 | doramapimod -0.047 | bafetinib -0.011 | [2] 0.057 | nilotinib -0.005 | [3] -0.002 | dasatinib -0.012 | [4] -0.077 | [5] 0.051 | quisinostat -0.017 | tipifarnib -0.05 | [6] 0.033 | [7] 0.064 | [8] -0.018

DHRS4 (UniProt Q9BTZ2)
inactive: lapatinib -0.014 | pictilisib 0.013 | crizotinib 0.073 | [1] -0.031 | duvelisib 0.007 | gandotinib 0.017 | tozasertib 0 | doramapimod 0.01 | bafetinib 0.01 | [2] 0.023 | nilotinib -0.022 | [3] -0.006 | dasatinib -0.003 | [4] -0.002 | [5] -0.024 | quisinostat 0.054 | tipifarnib -0.003 | [6] -0.025 | [7] -0.008 | [8] 0.006

DIS3L (UniProt Q8TF46)
inactive: lapatinib -0.014 | pictilisib 0.02 | crizotinib -0.064 | [1] -0.009 | duvelisib -0.034 | gandotinib -0.055 | tozasertib 0.019 | doramapimod 0.068 | bafetinib -0.138 | [2] -0.05 | nilotinib 0.042 | [3] -0.072 | dasatinib -0.03 | [4] -0.007 | [5] 0.099 | quisinostat -0.113 | tipifarnib -0.02 | [6] 0.011 | [7] 0.062 | [8] 0.044

DIEXF (UniProt Q68CQ4)
inactive: lapatinib -0.01 | pictilisib 0.006 | crizotinib -0.003 | [1] -0.01 | duvelisib 0.053 | gandotinib -0.048 | tozasertib 0.043 | doramapimod -0.018 | bafetinib -0.055 | [2] 0.016 | nilotinib 0.001 | [3] -0.014 | dasatinib -0.029 | [4] 0.104 | [5] 0.093 | quisinostat -0.037 | tipifarnib -0.007 | [6] 0.096 | [7] 0.032 | [8] 0.111

DOCK10 (UniProt Q96BY6)
active: [1] -0.641 | quisinostat -0.636
inactive: lapatinib -0.025 | pictilisib -0.024 | crizotinib -0.461 | duvelisib 0.003 | gandotinib 0.231 | tozasertib 0 | doramapimod 0.137 | bafetinib -0.226 | [2] 0.379 | nilotinib -0.046 | [3] -0.008 | dasatinib -0.086 | [4] -0.081 | [5] 0.025 | tipifarnib -0.129 | [6] -0.011 | [7] 0.029 | [8] -0.086

2 successive records already listed, for reference:
DHRS4 (UniProt Q9BTZ2)
inactive: lapatinib -0.014 | pictilisib 0.013 | crizotinib 0.073 | [1] -0.031 | duvelisib 0.007 | gandotinib 0.017 | tozasertib 0 | doramapimod 0.01 | bafetinib 0.01 | [2] 0.023 | nilotinib -0.022 | [3] -0.006 | dasatinib -0.003 | [4] -0.002 | [5] -0.024 | quisinostat 0.054 | tipifarnib -0.003 | [6] -0.025 | [7] -0.008 | [8] 0.006

DIS3L (UniProt Q8TF46)
inactive: lapatinib -0.014 | pictilisib 0.02 | crizotinib -0.064 | [1] -0.009 | duvelisib -0.034 | gandotinib -0.055 | tozasertib 0.019 | doramapimod 0.068 | bafetinib -0.138 | [2] -0.05 | nilotinib 0.042 | [3] -0.072 | dasatinib -0.03 | [4] -0.007 | [5] 0.099 | quisinostat -0.113 | tipifarnib -0.02 | [6] 0.011 | [7] 0.062 | [8] 0.044

Later entries

DNAJC8 (UniProt O75937)
inactive: lapatinib 0.023 | pictilisib 0.028 | crizotinib 0.105 | [1] 0.123 | duvelisib 0.032 | gandotinib -0.074 | tozasertib -0.003 | doramapimod -0.02 | bafetinib 0.001 | [2] -0.09 | nilotinib -0.052 | [3] 0.05 | dasatinib 0.034 | [4] 0.025 | [5] 0.006 | quisinostat 0.115 | tipifarnib 0.106 | [6] -0.019 | [7] -0.009 | [8] 0.026

DNMBP (UniProt Q6XZF7)
inactive: lapatinib -0.119 | pictilisib -0.081 | crizotinib -0.121 | [1] 0.046 | duvelisib 0.008 | gandotinib 0.009 | tozasertib -0.053 | doramapimod -0.043 | bafetinib -0.129 | [2] -0.018 | nilotinib -0.041 | [3] -0.159 | dasatinib -0.066 | [4] 0.223 | [5] 0.002 | quisinostat -0.036 | tipifarnib -0.087 | [6] 0.023 | [7] -0.026 | [8] -0.09
